In PubChem BioAssay AID2479 (National Center for Advancing Translational Sciences (NCATS), 2010):
The inconclusive results got no clear call from the source; some entries with a clear call stand among them for comparison. Potencies of inconclusive entries are doubtful fits and often do not repeat. Calls of active or inactive are those of the source. The call rests on the fitted dose curve.

Chains of the proteins cited; added tags and fusions are not shown. Lines headed by an entry give the natural chain unless they say otherwise; changes in a name come on top.
UniProt P10828: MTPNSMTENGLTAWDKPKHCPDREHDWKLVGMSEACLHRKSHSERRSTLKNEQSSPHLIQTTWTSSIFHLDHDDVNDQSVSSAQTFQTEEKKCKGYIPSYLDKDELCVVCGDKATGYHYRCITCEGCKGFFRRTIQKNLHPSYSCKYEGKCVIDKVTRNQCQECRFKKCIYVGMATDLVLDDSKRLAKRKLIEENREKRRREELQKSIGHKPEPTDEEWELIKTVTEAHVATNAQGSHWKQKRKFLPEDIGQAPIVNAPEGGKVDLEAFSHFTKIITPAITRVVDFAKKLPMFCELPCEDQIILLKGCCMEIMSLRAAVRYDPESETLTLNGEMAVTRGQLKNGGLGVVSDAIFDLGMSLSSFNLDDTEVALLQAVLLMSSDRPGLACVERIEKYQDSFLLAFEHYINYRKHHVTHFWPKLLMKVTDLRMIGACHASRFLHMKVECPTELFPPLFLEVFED

Each molecule was assayed against Thyroid hormone receptor beta (Homo sapiens) (UniProt P10828) (assay: Gene Reporter Secondary Assay for Inhibitors of the Interaction of Thyroid Hormone Receptor and Steroid Receptor Coregulator 2 in a Thyroid Receptor Assay). Conditions: WRO cells TRb DR4-TRE luciferase reporter, T3, 20 h.
Description: NIH Molecular Libraries Probe Production Network [MLPCN] NIH Chemical Genomics Center [NCGC] MLPCN Grant: DK058080 Assay Provider: R. Kip Guy, St. Jude Children's Research Hospital NCGC Assay Overview: Thyroid receptor (TR) regulates many homeostatic processes including basal metabolism, cardiovascular function, body weight, and lipid trafficking. TR modulators are potential therapeutics for obesity and hyperlipidemias but current thyroid analogs have undesirable side effects, particularly cardiac stimulation. This secondary assay characterized compounds identified in the qHTS for Inhibitors of the Interaction of Thyroid Hormone Receptor and Steroid Receptor Coregulator 2 (PubChem AID 1485). The human follicular thyroid carcinoma cell line WRO (kindly provided by Dr. M. D. Ringel) stably expresses TRb and a luciferase reporter gene fused to TR response element. The addition of T3 ligand elevates expression of the TRE luciferase reporter (DR4-TRE-luc).
NCGC Assay Protocol Summary: Cells were maintained in RPMI 1640 culture medium supplemented with 10% heat-inactivated FBS, 0.33 mg/ml hygromycin, 0.33 mg/ml geneticin, 50 units/ml penicillin, 50 ug/ml streptomycin. Cells were harvested and resuspended at 330,000 cells/ml in assay medium (50% DMEM 50% F-12 medium without Phenol-Red (Cellgro #16-405-CV), L-glutamine, 10% heat inactivated and charcoal treated FBS, 100 uM non-essential amino acid, 50 units/ml penicillin, 50 ug/ml streptomycin). Cells were dispensed at 8,000 cells/25 ul/well into 384 well plates (Corning 3917) and incubated 12 hr at 37 C and 5% CO2. Following transfer of 130 nL compound (ranging from 0.2 to 52 uM) and T3 (100 nM final concentration), the plates were incubated 20 hr incubation at 37 C and 5% CO2. Plates were then equilibrated at ambient temperature for 30 min, 25 ul of Bright-Glo (Promega) was added and luminescence was detected by an EnVision (PerkinElmer).

Row | Structure (SMILES) | Potency | outcome
1 | Cc1ccc(F)cc1NC(=O)COC(=O)c1ccc(S(C)(=O)=O)c([N+](=O)[O-])c1 | active: 17.9 µM | 
2 | CN1CCN(C(=O)COC(=O)c2ccc(S(C)(=O)=O)c([N+](=O)[O-])c2)CC1 | active: 33.9 µM | 
3 | CC(=O)Nc1cccc(C(=O)OCC(=O)NC(=O)C2CCCCC2)c1 |  | inactive
4 | CS(=O)(=O)c1ccc(C(=O)OCC(=O)NC2C3CC4CC(C3)CC2C4)cc1[N+](=O)[O-] (stereo not given) | inconclusive: 19 µM | 
5 | CS(=O)(=O)c1ccc(C(=O)OCC(=O)Nc2ccc(OC(F)(F)F)cc2)cc1[N+](=O)[O-] | inconclusive: 36.2 µM | 
6 | O=C(COC(=O)c1ccc(C(F)(F)F)cc1)NC(=O)C1CCCCC1 |  | inactive
7 | CCC(OC(=O)c1ccc(S(C)(=O)=O)c([N+](=O)[O-])c1)C(=O)NC1C2CC3CC(C2)CC1C3 (stereo not given) | inconclusive: 5.2 µM | 
8 | CS(=O)(=O)c1ccc(C(=O)OCC(=O)Nc2cc(C(F)(F)F)ccc2Cl)cc1[N+](=O)[O-] | active: 22.7 µM | 
9 | CC(C)CN1CCN(C(=O)COC(=O)c2ccc(S(C)(=O)=O)c([N+](=O)[O-])c2)CC1 | inconclusive: 16.7 µM | 
10 | O=C(COC(=O)c1cccc([N+](=O)[O-])c1)NC1C2CC3CC(C2)CC1C3 (stereo not given) |  | inactive
11 | CS(=O)(=O)c1ccc(C(=O)OCC(=O)N2CCNc3ccccc32)cc1[N+](=O)[O-] | inconclusive: 32.4 µM | 
12 | CS(=O)(=O)c1ccc(C(=O)OCC(=O)NC(=O)C2CCCCC2)cc1[N+](=O)[O-] | inconclusive: 28.5 µM | 
13 | CS(=O)(=O)c1ccc(C(=O)OCC(=O)N2CCCCC2)cc1[N+](=O)[O-] | inconclusive: 13.6 µM | 
14 | C[S+](=O)([O-])c1ccc(C(=O)OCC(=O)NC2C3CC4CC(C3)CC2C4)cc1 (stereo not given) |  | inactive
15 | C[S+](=O)([O-])c1ccc(C(=O)OCC(=O)N2CCNC(=O)C2)cc1[N+](=O)[O-] |  | inactive
16 | CC(=O)c1cccc(NC(=O)COC(=O)c2ccc(S(C)(=O)=O)c([N+](=O)[O-])c2)c1 | inconclusive: 32 µM | 
17 | N#Cc1ncc(C(=O)OCC(=O)NC2C3CC4CC(C3)CC2C4)cn1 (stereo not given) |  | inconclusive
18 | CC1CCCCN1C(=O)COC(=O)c1ccc(S(C)(=O)=O)c([N+](=O)[O-])c1 (stereo not given) | active: 12.6 µM | 
19 | CS(=O)(=O)c1ccc(-c2nc(C(=O)NC3C4CC5CC(C4)CC3C5)cs2)cc1[N+](=O)[O-] (stereo not given) | inconclusive: 19.2 µM | 
20 | Cn1cccc1C(=O)NC(=O)COC(=O)c1ccc(S(C)(=O)=O)c([N+](=O)[O-])c1 | inconclusive: 26.2 µM | 

Shown with tabs: part of the list above
Row	Structure (SMILES)	Potency	outcome
10	O=C(COC(=O)c1cccc([N+](=O)[O-])c1)NC1C2CC3CC(C2)CC1C3 (stereo not given)		inactive
11	CS(=O)(=O)c1ccc(C(=O)OCC(=O)N2CCNc3ccccc32)cc1[N+](=O)[O-]	inconclusive: 32.4 µM	

Further structures follow:

Row | Structure (SMILES) | Potency | outcome
21 | CCc1nc(-c2ccc(S(C)(=O)=O)c([N+](=O)[O-])c2)sc1C(=O)NC1C2CC3CC(C2)CC1C3 (stereo not given) | inconclusive: 7.9 µM | 
22 | CS(=O)(=O)c1ccc(C(=O)OCC(=O)NC(=O)NC2CCCCC2)cc1[N+](=O)[O-] | active: 12.7 µM | 
23 | CS(=O)(=O)c1ccc(C(=O)OCC(=O)N2CCN(CCC3CCCCC3)CC2)cc1[N+](=O)[O-] | inconclusive: 8.1 µM | 
24 | CS(=O)(=O)c1ncc(C(=O)OCC(=O)NC2C3CC4CC(C3)CC2C4)cn1 (stereo not given) |  | inconclusive
25 | CC(=O)N1CCN(C(=O)COC(=O)c2ccc([S+](C)(=O)[O-])c([N+](=O)[O-])c2)CC1 |  | inactive
26 | CS(=O)(=O)c1ccc(C(=O)OCC(=O)N2CCC(c3ccccc3)CC2)cc1[N+](=O)[O-] | inconclusive: 10.6 µM | 
27 | CC1CCN(C(=O)C(C)OC(=O)c2ccc(S(C)(=O)=O)c([N+](=O)[O-])c2)CC1 (stereo not given) | inconclusive: 11.3 µM | 
28 | O=C(COC(=O)c1ccc(Cl)c([N+](=O)[O-])c1)NC1C2CC3CC(C2)CC1C3 (stereo not given) |  | inactive
29 | O=C(COC(=O)c1cc([N+](=O)[O-])ccc1Cl)NC1C2CC3CC(C2)CC1C3 (stereo not given) |  | inactive
30 | Cc1nc(-c2ccc(S(C)(=O)=O)c([N+](=O)[O-])c2)sc1C(=O)NC1C2CC3CC(C2)CC1C3 (stereo not given) | inconclusive: 10 µM | 
31 | O=C(COC(=O)c1cccc([N+](=O)[O-])c1Cl)NC1C2CC3CC(C2)CC1C3 (stereo not given) |  | inactive
32 | CS(=O)(=O)c1ccc(C(=O)OC(C(=O)NC2C3CC4CC(C3)CC2C4)c2ccccc2)cc1[N+](=O)[O-] (stereo not given) | inconclusive: 5.7 µM | 
33 | CC(OC(=O)c1ccc(S(C)(=O)=O)c([N+](=O)[O-])c1)C(=O)NC1C2CC3CC(C2)CC1C3 (stereo not given) | inconclusive: 9.3 µM | 
34 | CS(=O)(=O)c1ccc(C(=O)NCC(=O)NC2C3CC4CC(C3)CC2C4)cc1[N+](=O)[O-] (stereo not given) | inconclusive: 13.1 µM | 
35 | CC(OC(=O)c1ccc(S(C)(=O)=O)c([N+](=O)[O-])c1)C(=O)NC12CC3CC(CC(C3)C1)C2 (stereo not given) | inconclusive: 5.4 µM | 
36 | CS(=O)(=O)c1ccc(C(=O)OCC(=O)N2CCN(c3ccccc3)CC2)cc1[N+](=O)[O-] | inconclusive: 12.6 µM | 
37 | O=C(COC(=O)c1ccc2ncsc2c1)NC(=O)C1CCCCC1 |  | inactive
38 | O=C(COC(=O)c1cc([N+](=O)[O-])ccc1F)NC1C2CC3CC(C2)CC1C3 (stereo not given) |  | inactive
39 | O=C(COC(=O)c1ccc(F)c([N+](=O)[O-])c1)NC1C2CC3CC(C2)CC1C3 (stereo not given) |  | inactive
40 | CS(=O)(=O)c1ccc(C(=O)OCC(=O)N2CCC(Cc3ccccc3)CC2)cc1[N+](=O)[O-] | inconclusive: 7.8 µM | 
